Laboratory results reported in the supplement of paper PMC8732350.
Counter-ions that a name gives are not always drawn. ± gives the standard deviation of the averaged measurements. This is one part of the list. This data set is noisy: repeats of one test often differ as much as different tests do.

test system: A549; experiment: surface PD-L1 immunofluorescence intensity relative to IFN-gamma-only control (ratio); higher = more PD-L1 expression; settings: 10 µM; exposure time 24 h; IFN-gamma 100 ng/mL

Structure (SMILES)	surface PD-L1 immunofluorescence intensity
CC(=O)Nc1nc(C)c(-c2ccc(Cl)c(S(=O)(=O)NCCO)c2)s1	0.98
CCCCN1CCCC1CNC(=O)c1cc(C#N)c2ccccc2c1OC (centres undefined) [Nafadotride]	1.06
Nc1c(S(=O)(=O)O)cc(Nc2cccc3ccccc23)c2c1C(=O)c1ccccc1C2=O	1.07
OC[C@H]1O[C@@H](Oc2cc(O)cc(/C=C/c3ccc(O)cc3)c2)[C@H](O)[C@@H](O)[C@@H]1O [Polydatin (Piceid)]	1.12
COc1ccc(C2CNC(=O)C2)cc1OC1CCCC1 (centres undefined) [Rolipram]	1.01 ± 0.014
CC(/C=C/c1cccc(Oc2ccc(F)cc2)c1)N(O)C(N)=O (centres undefined)	0.944
O=c1c(O)c(-c2ccc(O)cc2O)oc2cc(O)cc(O)c12 [Morin hydrate (Aurantica)]	0.952
CCOC(=O)[C@H](CCc1ccccc1)N[C@H]1CS[C@H](c2cccs2)CN(CC(=O)O)C1=O [Temocapril HCl]	1.13
CCCCC(F)(F)[C@@]1(O)CC[C@H]2[C@@H](CC(=O)[C@@H]2CCCCCCC(=O)O)O1 [Lubiprostone (Amitiza)]	0.987
Cc1ccc([N+](=O)[O-])cc1S(=O)(=O)N(C)C	1.02
O=S(=O)(O)c1cc(O)ccc1O [Ethamsylate]	0.957
Cc1c(O)c(=O)ccn1C [Deferiprone]	0.881
c1ccc([C@H]2CN3CCSC3=N2)cc1 [Levamisole hydrochloride]	0.968
CCC(=O)O[C@]1(C(=O)CCl)[C@@H](C)C[C@H]2[C@@H]3CCC4=CC(=O)C=C[C@]4(C)[C@@]3(F)[C@@H](O)C[C@@]21C [Clobetasol propionate]	0.836
C=CC(=O)Nc1ccc2ncnc(Nc3cccc(Br)c3)c2c1	1.05
CC1Cc2ccccc2N1NC(=O)c1ccc(Cl)c(S(N)(=O)=O)c1 (centres undefined) [Indapamide]	0.989
CO/N=C(\C(=O)N[C@@H]1C(=O)N2C(C(=O)O)=C(Cn3ccc(=N)n3CCO)CS[C@H]12)c1csc(N)n1 [Cefoselis sulfate]	1.04
COc1cc(/C=C(\C#N)C(N)=O)cc(CSc2nc3ccccc3s2)c1O	0.931
CCOCC(O)COc1ccc(NC(=O)CC[S+](C)C)cc1 (centres undefined) [Suplatast tosylate]	1.03
O=C(NCC(O)CO)c1c(I)c(C(=O)NCC(O)CO)c(I)c(N(CCO)C(=O)CO)c1I (centres undefined) [Ioversol]	1.06
CO/N=C(\C(=O)N[C@@H]1C(=O)N2C(C(=O)O)=C(COC(N)=O)CS[C@H]12)c1ccco1 [Cefuroxime sodium salt]	1.08
CN1CCN(CCOc2cc(OC3CCOCC3)c3c(Nc4c(Cl)ccc5c4OCO5)ncnc3c2)CC1 [Saracatinib (AZD0530)]	0.998
Nc1ccc(S(=O)(=O)Nc2ccnn2-c2ccccc2)cc1 [Sulfaphenazole]	0.88
CCCCCCCCCCCCCCCC(=O)O[C@@H]1[C@@H](O)[C@@H](O)[C@@H]([C@H](NC(=O)[C@@H]2C[C@@H](CCC)CN2C)[C@H](C)Cl)O[C@@H]1SC [Clindamycin palmitate HCl]	0.998
Cc1cc(CC(=O)O)n(C)c1C(=O)c1ccc(Cl)cc1 [Zomepirac sodium salt]	1

Structure (SMILES)	surface PD-L1 immunofluorescence intensity
O=C(O)C1=CCCNC1 [Guvacine hydrochloride]	1.06
CC#CCOC(=O)C1=CCCN(C)C1 [Arecaidine but-2-ynyl ester tosylate]	0.942
C[C@H](CCC(=O)O)[C@H]1CC[C@H]2[C@@H]3CC[C@@H]4C[C@H](O)CC[C@]4(C)[C@H]3C[C@H](O)[C@]12C [Deoxycholic acid]	1.06
C[C@H](CCC(=O)O)[C@H]1CC[C@H]2[C@@H]3CC[C@@H]4C[C@H](O)CC[C@]4(C)[C@H]3C[C@H](O)[C@]12C [Sodium Deoxycholic acid]	0.888
CC(C)=CCC/C(C)=C/CC/C(C)=C/CSCC(=O)O [Farnesylthioacetic acid]	1.09
O=C1CC2(CCCC2)CC(=O)N1CCCCN1CCN(c2ncccn2)CC1 [Buspirone hydrochloride]	1 ± 0.025
CC[C@H]1OC(=O)[C@H](C)[C@@H](O[C@H]2C[C@@](C)(OC)[C@@H](O)[C@H](C)O2)[C@H](C)[C@@H](O[C@@H]2O[C@H](C)C[C@H](N(C)C)[C@H]2O)[C@](C)(O)C[C@@H](C)[C@@H]2N[C@@H](COCCOC)O[C@H]([C@H]2C)[C@]1(C)O [Dirithromycin]	0.953
Cc1cc(C)c(/C=C2\C(=O)Nc3ccccc32)[nH]1	0.978
O=C(NOC[C@H](O)CO)c1ccc(F)c(F)c1Nc1ccc(I)cc1F	0.956
CC(C)c1cc(-c2ccc(F)c3ccccc23)nc(N)n1	1.08
Cc1c(F)cc(C(=O)NC2CC2)cc1-c1ccc(C(=O)NCC(C)(C)C)cn1 [Losmapimod]	0.947
CNC(C)C1CCC(N)C(OC2C(N)CC(N)C(OC3OCC(C)(O)C(NC)C3O)C2O)O1 (centres undefined) [Gentamycin sulfate (Gentacycol)]	0.953
Nc1nc(NCCc2ccc(O)cc2)nc2nc(-c3ccco3)nn12	1.12
c1ccc(C(NCc2cccnc2)(c2ccccc2)c2ccccc2)cc1	1.04
Cc1cccc(C#Cc2ccccc2)n1 [MPEP hydrochloride]	0.995
N[C@H](C(=O)O)c1cc(O)cc(O)c1	1.03
COC(=O)C1=C(C)NC(C)=C(C(=O)OCCSc2ccccc2)C1C (centres undefined)	1.01
C[C@H](O)C(=O)Nc1c(I)c(C(=O)NC(CO)CO)c(I)c(C(=O)NC(CO)CO)c1I [Iopamidol]	1.01
O=c1cc[nH]c(=S)[nH]1 [2-Thiouracil]	1.01
CC(C)CC(=O)N[C@H](C(=O)N[C@H](C(=O)N[C@@H](CC(C)C)[C@@H](O)CC(=O)N[C@@H](C)C(=O)N[C@@H](CC(C)C)[C@@H](O)CC(=O)O)C(C)C)C(C)C [Pepstatin A]	0.943 ± 0.041
Cc1ccc(Cl)c(Nc2ccccc2C(=O)O)c1Cl [Meclofenamic acid sodium salt monohydrate]	0.9
C=C1/C(=C\C=C2/CCC[C@]3(C)[C@@H]([C@H](C)/C=C/[C@@H](O)C4CC4)CC[C@@H]23)C[C@@H](O)C[C@@H]1O [Calcipotriene]	1.01
C=C1/C(=C\C=C2/CCC[C@]3(C)[C@@H]([C@H](C)/C=C/[C@@H](O)C4CC4)CC[C@@H]23)C[C@@H](O)C[C@@H]1O [Calcipotriol]	1.04
O=C(NCCO[N+](=O)[O-])c1cccnc1 [Nicorandil]	0.947 ± 0.059
CN(C)CCOc1ccc(/C(=C(/CCCl)c2ccccc2)c2ccccc2)cc1 [Toremifene]	1.05

Reformatted as a markdown table: entries from further up

| Structure (SMILES) | surface PD-L1 immunofluorescence intensity |
| --- | --- |
| O=C(O)C1=CCCNC1 [Guvacine hydrochloride] | 1.06 |
| CC#CCOC(=O)C1=CCCN(C)C1 [Arecaidine but-2-ynyl ester tosylate] | 0.942 |
| C[C@H](CCC(=O)O)[C@H]1CC[C@H]2[C@@H]3CC[C@@H]4C[C@H](O)CC[C@]4(C)[C@H]3C[C@H](O)[C@]12C [Deoxycholic acid] | 1.06 |
| C[C@H](CCC(=O)O)[C@H]1CC[C@H]2[C@@H]3CC[C@@H]4C[C@H](O)CC[C@]4(C)[C@H]3C[C@H](O)[C@]12C [Sodium Deoxycholic acid] | 0.888 |
| CC(C)=CCC/C(C)=C/CC/C(C)=C/CSCC(=O)O [Farnesylthioacetic acid] | 1.09 |
| O=C1CC2(CCCC2)CC(=O)N1CCCCN1CCN(c2ncccn2)CC1 [Buspirone hydrochloride] | 1 ± 0.025 |
| CC[C@H]1OC(=O)[C@H](C)[C@@H](O[C@H]2C[C@@](C)(OC)[C@@H](O)[C@H](C)O2)[C@H](C)[C@@H](O[C@@H]2O[C@H](C)C[C@H](N(C)C)[C@H]2O)[C@](C)(O)C[C@@H](C)[C@@H]2N[C@@H](COCCOC)O[C@H]([C@H]2C)[C@]1(C)O [Dirithromycin] | 0.953 |
| Cc1cc(C)c(/C=C2\C(=O)Nc3ccccc32)[nH]1 | 0.978 |
| Cc1c(F)cc(C(=O)NC2CC2)cc1-c1ccc(C(=O)NCC(C)(C)C)cn1 [Losmapimod] | 0.947 |
| c1ccc(C(NCc2cccnc2)(c2ccccc2)c2ccccc2)cc1 | 1.04 |
| Cc1cccc(C#Cc2ccccc2)n1 [MPEP hydrochloride] | 0.995 |
| N[C@H](C(=O)O)c1cc(O)cc(O)c1 | 1.03 |
| C[C@H](O)C(=O)Nc1c(I)c(C(=O)NC(CO)CO)c(I)c(C(=O)NC(CO)CO)c1I [Iopamidol] | 1.01 |
| O=c1cc[nH]c(=S)[nH]1 [2-Thiouracil] | 1.01 |
| CC(C)CC(=O)N[C@H](C(=O)N[C@H](C(=O)N[C@@H](CC(C)C)[C@@H](O)CC(=O)N[C@@H](C)C(=O)N[C@@H](CC(C)C)[C@@H](O)CC(=O)O)C(C)C)C(C)C [Pepstatin A] | 0.943 ± 0.041 |
| Cc1ccc(Cl)c(Nc2ccccc2C(=O)O)c1Cl [Meclofenamic acid sodium salt monohydrate] | 0.9 |
| C=C1/C(=C\C=C2/CCC[C@]3(C)[C@@H]([C@H](C)/C=C/[C@@H](O)C4CC4)CC[C@@H]23)C[C@@H](O)C[C@@H]1O [Calcipotriene] | 1.01 |
| O=C(NCCO[N+](=O)[O-])c1cccnc1 [Nicorandil] | 0.947 ± 0.059 |
| CN(C)CCOc1ccc(/C(=C(/CCCl)c2ccccc2)c2ccccc2)cc1 [Toremifene] | 1.05 |

Next records follow.

Structure (SMILES)	surface PD-L1 immunofluorescence intensity
CC(C(=O)O)c1ccc(N2Cc3ccccc3C2=O)cc1 (centres undefined) [Indoprofen]	0.997
Cc1cc(Nc2ncnc3ccc(-c4ccc(CNCCS(C)(=O)=O)o4)cc23)ccc1Oc1ccn2ncnc2c1 [HER2 Inhibitor 1]	1.11
CC1=Nc2ccc(Cl)cc2S(=O)(=O)N1 [Diazoxide]	0.87 ± 0.13
Cc1cc(/C(=C/Nc2ccc(Cl)cc2)C(=O)Nc2ccc(Cl)cc2)on1	1.01
CCCC(CCC)C(=O)NO [Valproic acid hydroxamate]	0.921
C[C@H]1C[C@H]2[C@@H]3CCC4=CC(=O)C=C[C@]4(C)[C@@]3(F)[C@@H](O)C[C@]2(C)[C@@]1(O)C(=O)CO [Betamethasone]	0.8
CNC(=O)[C@H](Cc1c[nH]c2ccccc12)NC(=O)[C@@H](CC(=O)NO)CC(C)C	1
COc1cc2nccc(Oc3ccc(NC(=O)C4(C(=O)Nc5ccc(F)cc5)CC4)cc3)c2cc1OC [XL-184 free base (Cabozantinib)]	0.995
O=C(O)/C=C/c1ccc(Cn2ccnc2)cc1 [Ozagrel hydrochloride]	1.06
CCCc1nc(C)c2c(=O)nc(-c3cc(S(=O)(=O)N4CCN(CC)CC4)ccc3OCC)[nH]n12 [Vardenafil]	1.08
CCCc1nc(C)c2c(=O)nc(-c3cc(S(=O)(=O)N4CCN(CC)CC4)ccc3OCC)[nH]n12 [Vardenafil Hydrochloride Trihydrate (Vivanza)]	1.01
CNC(=O)c1cc(COc2nnc(Nc3ccc(Cl)cc3)c3ccoc23)ccn1 [Telatinib (BAY 57-9352)]	1.01
O=c1c(-c2ccc(O)cc2)coc2c([C@@H]3O[C@H](CO)[C@@H](O)[C@H](O)[C@H]3O)c(O)ccc12 [Puerarin (Kakonein)]	1.09
CCn1nc(C(=O)O)c(=O)c2cc3c(cc21)OCO3 [Cinoxacin]	0.941
CCCCN1CCC(CCC(=O)c2cc(Cl)c(N)cc2OC)CC1	1.05
COCCOC(=O)C1=C(C)NC(C)=C(C(=O)OC/C=C/c2ccccc2)C1c1cccc([N+](=O)[O-])c1 (centres undefined) [Cilnidipine]	1.04
CCOc1nc2cccc(C(=O)O)c2n1Cc1ccc(-c2ccccc2-c2noc(=O)[nH]2)cc1 [Azilsartan (TAK-536)]	0.957
O=C1c2ccccc2C(Cc2ccnc(F)c2)(Cc2ccnc(F)c2)c2ccccc21	0.867
Cc1cc([C@@H](C)Nc2ccccc2C(=O)O)c2nc(N3CCOCC3)cc(=O)n2c1	1.03
CCCCNc1ccc(C(=O)OCCOCCOCCOCCOCCOCCOCCOCCOCCOC)cc1 [Benzonatate]	0.903
Cc1cnc(NC(=O)C2=C(O)c3ccccc3S(=O)(=O)N2C)s1 [Meloxicam]	0.959
CC(C)NCC(O)COc1ccc(CC(N)=O)cc1 (racemic) [(RS)-Atenolol]	0.982
O=C(O)CCCc1ccccc1 [sodium 4-Phenylbutyrate]	0.94
COc1cc(O)cc(O)c1C(=O)/C=C/c1ccccc1 [Cardamonin]	1.12
